# From PMC5996148
# The other results are listed elsewhere or left out.
# Experiments:
# Assay in all cases: protein microarray (ProtoArray v5.0), streptavidin-Alexa Fluor 647
# Settings in all cases: 3'-biotin; 20 mM Tris (pH 7.5), 5 mM MgCl2, 100 mM KCl, 0.1% Tween-20, A/T-rich and random oligonucleotide blockers; temperature not stated; high values mean tight binding
# [1] = tested on: Prenylated Rab acceptor protein 1 (human)
# [2] = tested on: Probable O-sialoglycoprotein endopeptidase 2 (human)
# [3] = tested on: Probable ergosterol biosynthetic protein 28 (human)
# [4] = tested on: Probable histone acetyltransferase MYST1 (human)
# Prolactin (human) = tested on: Prolactin (human)
# [5] = tested on: Prostate stem cell antigen (human)
# [6] = tested on: Proteasome assembly chaperone 2 (human)
# [7] = tested on: Proteasome subunit alpha type-1 (human)
# [8] = tested on: Proteasome subunit beta type-2 (human)
# Protein 71-7A (human) = tested on: Protein 71-7A (human)
# Protein ARMCX6 (human) = tested on: Protein ARMCX6 (human)
# Protein BEAN (human) = tested on: Protein BEAN (human)
# Protein BEX5 (human) = tested on: Protein BEX5 (human)
# [9] = tested on: Protein DDI1 homolog 1 (human)
# Protein DGCR6L (human) = tested on: Protein DGCR6L (human)
# Protein Dom3Z (human) = tested on: Protein Dom3Z (human)
# Protein Dr1 (human) = tested on: Protein Dr1 (human)
# Protein FAM131B (human) = tested on: Protein FAM131B (human)
# Protein FAM151A (human) = tested on: Protein FAM151A (human)
# Protein FAM178B (human) = tested on: Protein FAM178B (human)
sequence,measurement,setting,value
GGGAGGCTGAGGCAGG [G4-1 biotinylated (PQS2)],binding signal,[1],-0.343 z-score
same,binding signal,[2],-0.288 z-score
same,binding signal,[3],-0.356 z-score
same,binding signal,[4],-0.334 z-score
same,binding signal,Prolactin (human),-0.34 z-score
same,binding signal,[5],-0.338 z-score
same,binding signal,[6],-0.341 z-score
same,binding signal,[7],-0.308 z-score
same,binding signal,[8],-0.354 z-score
same,binding signal,Protein 71-7A (human),-0.333 z-score
same,binding signal,Protein ARMCX6 (human),-0.282 z-score
same,binding signal,Protein BEAN (human),-0.346 z-score
same,binding signal,Protein BEX5 (human),-0.358 z-score
same,binding signal,[9],-0.341 z-score
same,binding signal,Protein DGCR6L (human),-0.351 z-score
same,binding signal,Protein Dom3Z (human),-0.321 z-score
same,binding signal,Protein Dr1 (human),-0.376 z-score
same,binding signal,Protein FAM131B (human),-0.247 z-score
same,binding signal,Protein FAM151A (human),-0.312 z-score
same,binding signal,Protein FAM178B (human),-0.306 z-score

# Quoted at random: two records from the list.
sequence,measurement,setting,value
GGGAGGCTGAGGCAGG [G4-1 biotinylated (PQS2)],binding signal,Protein BEX5 (human),-0.358 z-score
same,binding signal,[3],-0.356 z-score
